The list shows a part of the results, in another mix than the full data. For part of these data: At the low end of the ranking the order means little. The list shows a part of the results. For part of these data: The source does not settle which construct or isoform was used.
Experiments:
Assay in all cases: DAPPL (digital affinity profiling via proximity ligation, sequencing)
Settings in all cases: 10 mM Tris-HCl pH 7.5, 50 mM NaCl, 1 mM DTT, 4% glycerol, room temperature, 30 min; GST-TFs on glutathione beads, 16-mer random dsDNA library, 0.1% …; high values mean tight binding; double strand, one strand shown; scale: fold enrichment (6-mer frequency, TF over GST control)
ERG = target: T1, ERG (UniProt P11308)
T1 sequence: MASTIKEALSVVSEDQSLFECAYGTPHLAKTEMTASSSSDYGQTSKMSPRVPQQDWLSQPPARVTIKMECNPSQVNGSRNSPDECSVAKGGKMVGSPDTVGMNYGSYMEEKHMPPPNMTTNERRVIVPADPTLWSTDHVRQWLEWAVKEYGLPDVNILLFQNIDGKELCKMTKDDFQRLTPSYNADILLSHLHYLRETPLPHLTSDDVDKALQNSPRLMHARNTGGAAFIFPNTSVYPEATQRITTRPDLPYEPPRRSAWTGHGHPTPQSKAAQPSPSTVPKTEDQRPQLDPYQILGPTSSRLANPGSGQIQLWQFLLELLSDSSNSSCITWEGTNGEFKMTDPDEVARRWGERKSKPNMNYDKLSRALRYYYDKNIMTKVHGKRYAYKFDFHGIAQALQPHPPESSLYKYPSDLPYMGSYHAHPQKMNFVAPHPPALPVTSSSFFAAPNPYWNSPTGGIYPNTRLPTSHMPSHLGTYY

Amino acid sequences for entries named in this document (tags omitted). A change or cut given only in a name is not applied to a line headed by its entry.
UniProt P32519: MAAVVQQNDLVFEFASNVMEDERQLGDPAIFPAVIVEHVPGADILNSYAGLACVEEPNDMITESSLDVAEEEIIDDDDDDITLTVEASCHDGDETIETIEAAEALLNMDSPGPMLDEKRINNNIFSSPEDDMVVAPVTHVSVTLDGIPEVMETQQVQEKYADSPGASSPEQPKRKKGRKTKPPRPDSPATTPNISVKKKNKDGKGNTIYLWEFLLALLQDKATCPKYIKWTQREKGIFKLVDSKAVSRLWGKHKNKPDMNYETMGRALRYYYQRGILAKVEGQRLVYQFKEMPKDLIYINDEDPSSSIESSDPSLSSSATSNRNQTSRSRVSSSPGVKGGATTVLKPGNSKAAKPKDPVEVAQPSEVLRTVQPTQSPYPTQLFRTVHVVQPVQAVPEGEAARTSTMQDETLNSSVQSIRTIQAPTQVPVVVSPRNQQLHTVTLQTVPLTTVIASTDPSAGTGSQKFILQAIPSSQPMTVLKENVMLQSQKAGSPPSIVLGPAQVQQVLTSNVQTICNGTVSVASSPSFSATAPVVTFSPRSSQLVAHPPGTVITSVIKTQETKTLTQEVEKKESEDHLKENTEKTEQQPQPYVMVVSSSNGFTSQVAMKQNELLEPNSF
UniProt P50549: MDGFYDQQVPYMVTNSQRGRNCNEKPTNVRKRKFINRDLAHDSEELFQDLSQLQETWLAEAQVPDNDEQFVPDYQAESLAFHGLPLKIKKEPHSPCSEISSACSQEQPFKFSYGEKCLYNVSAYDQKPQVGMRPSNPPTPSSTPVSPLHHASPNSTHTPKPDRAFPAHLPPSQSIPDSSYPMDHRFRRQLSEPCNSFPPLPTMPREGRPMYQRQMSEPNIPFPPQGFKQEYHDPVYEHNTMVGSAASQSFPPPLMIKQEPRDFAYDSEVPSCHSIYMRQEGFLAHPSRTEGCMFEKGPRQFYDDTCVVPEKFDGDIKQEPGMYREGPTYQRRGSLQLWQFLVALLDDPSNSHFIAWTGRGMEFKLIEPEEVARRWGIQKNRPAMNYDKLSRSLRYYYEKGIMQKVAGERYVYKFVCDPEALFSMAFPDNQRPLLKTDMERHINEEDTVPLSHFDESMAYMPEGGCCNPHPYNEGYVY

ELF1 = ELF1 (UniProt P32519)
ELK4 = target: T2, ELK4 (UniProt P28324-2)
T2 sequence: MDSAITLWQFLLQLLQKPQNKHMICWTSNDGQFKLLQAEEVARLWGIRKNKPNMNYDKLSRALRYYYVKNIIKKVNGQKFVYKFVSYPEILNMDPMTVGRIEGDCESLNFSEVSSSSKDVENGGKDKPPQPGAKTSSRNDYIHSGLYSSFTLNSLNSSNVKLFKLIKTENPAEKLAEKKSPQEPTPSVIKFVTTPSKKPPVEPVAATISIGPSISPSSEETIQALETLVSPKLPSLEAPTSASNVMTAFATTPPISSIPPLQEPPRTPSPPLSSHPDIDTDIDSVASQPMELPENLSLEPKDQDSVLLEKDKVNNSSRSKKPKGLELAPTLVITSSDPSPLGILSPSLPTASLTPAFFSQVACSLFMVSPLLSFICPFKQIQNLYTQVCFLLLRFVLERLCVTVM

ETV4 = target: T3, ETV4 (UniProt P43268)
T3 sequence: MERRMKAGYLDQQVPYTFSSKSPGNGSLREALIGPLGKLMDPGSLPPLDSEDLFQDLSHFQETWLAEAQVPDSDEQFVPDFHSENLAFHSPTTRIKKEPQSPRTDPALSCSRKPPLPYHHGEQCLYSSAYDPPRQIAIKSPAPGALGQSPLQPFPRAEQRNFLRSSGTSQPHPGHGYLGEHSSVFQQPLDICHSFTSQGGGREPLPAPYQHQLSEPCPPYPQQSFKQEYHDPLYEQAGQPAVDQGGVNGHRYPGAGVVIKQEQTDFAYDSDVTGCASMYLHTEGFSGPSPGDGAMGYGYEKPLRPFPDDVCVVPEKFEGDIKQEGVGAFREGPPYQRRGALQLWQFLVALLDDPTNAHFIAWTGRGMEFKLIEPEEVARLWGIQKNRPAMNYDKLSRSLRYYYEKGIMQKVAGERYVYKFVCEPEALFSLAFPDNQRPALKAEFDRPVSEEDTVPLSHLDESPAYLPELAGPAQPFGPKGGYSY

ETV1 = ETV1 (UniProt P50549)
ERF = target: T4, ERF (UniProt P50548)
T4 sequence: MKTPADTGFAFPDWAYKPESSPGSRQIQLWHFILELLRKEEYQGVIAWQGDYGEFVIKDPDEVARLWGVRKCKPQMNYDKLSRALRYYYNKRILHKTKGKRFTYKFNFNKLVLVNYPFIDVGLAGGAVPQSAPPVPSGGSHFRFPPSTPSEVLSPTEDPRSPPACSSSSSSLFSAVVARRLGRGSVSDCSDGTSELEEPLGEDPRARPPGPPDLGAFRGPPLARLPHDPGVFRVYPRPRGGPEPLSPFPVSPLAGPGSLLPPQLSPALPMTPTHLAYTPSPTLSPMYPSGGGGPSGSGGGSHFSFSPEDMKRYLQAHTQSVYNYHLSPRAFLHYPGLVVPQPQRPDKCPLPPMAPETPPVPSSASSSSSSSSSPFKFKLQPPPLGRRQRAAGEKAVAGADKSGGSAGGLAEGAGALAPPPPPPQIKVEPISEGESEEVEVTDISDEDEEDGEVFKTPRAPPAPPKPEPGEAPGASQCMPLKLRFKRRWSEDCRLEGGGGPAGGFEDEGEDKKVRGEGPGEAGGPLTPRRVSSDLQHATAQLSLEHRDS

Sequence	binding signal (ERG)	binding signal (ELF1)	binding signal (ELK4)	binding signal (ETV4)	binding signal (ETV1)	binding signal (ERF)
GCAAGA	0.828	0.795	0.777	0.778	0.818	0.867
CCGTAG	0.84	0.933	0.986	0.823	0.867	0.838
CGGTGC	0.696	0.648	0.656	0.737	0.707	0.618
GTCGCC	0.853	0.893	0.876	0.925	0.992	0.883
CGGTGT	0.738	0.701	0.633	0.75	0.741	0.739
GGGCGA	0.769	0.806	0.797	0.802	0.757	0.905
GTCGCA	0.79	0.78	0.689	0.703	0.699	0.753
GGCATG	0.887	0.854	0.915	0.906	0.945	0.842
AGACCC	0.716	0.699	0.617	0.719	0.693	0.619
GGACGG	0.55	0.525	0.434	0.518	0.503	0.529
GAGGGG	0.56	0.505	0.562	0.494	0.517	0.598
CGGCGC	0.652	0.656	0.811	0.705	0.648	0.616
AGGGTG	0.834	0.79	0.823	0.728	0.756	0.758
GTTGGG	0.688	0.741	0.662	0.738	0.716	0.738
GACAGA	0.681	0.66	0.655	0.649	0.698	0.676
GCGCAA	0.841	0.845	0.906	0.801	0.86	0.829
GGGATG	0.875	0.866	0.938	0.956	0.92	0.983
CGTGAC	0.562	0.554	0.603	0.556	0.539	0.567
ACGAGA	0.647	0.667	0.682	0.702	0.648	0.629
AAGGAG	0.351	0.333	0.355	0.349	0.334	0.372

Part of the list above in a different format:

| Sequence | binding signal (ERG) | binding signal (ELF1) | binding signal (ELK4) | binding signal (ETV4) | binding signal (ETV1) | binding signal (ERF) |
| --- | --- | --- | --- | --- | --- | --- |
| CCGTAG | 0.84 | 0.933 | 0.986 | 0.823 | 0.867 | 0.838 |
| CGTGAC | 0.562 | 0.554 | 0.603 | 0.556 | 0.539 | 0.567 |
| ACGAGA | 0.647 | 0.667 | 0.682 | 0.702 | 0.648 | 0.629 |

Remaining list, next part

Sequence	binding signal (ERG)	binding signal (ELF1)	binding signal (ELK4)	binding signal (ETV4)	binding signal (ETV1)	binding signal (ERF)
CGGTGG	0.641	0.548	0.7	0.591	0.597	0.704
GAGGCT	0.608	0.585	0.675	0.597	0.657	0.66
TGCGAG	0.948	0.903	0.855	0.854	0.981	0.968
TCGGCG	0.487	0.496	0.577	0.503	0.514	0.545
GCCGTT	0.769	0.837	0.765	0.807	0.829	0.845
GCGGAG	0.291	0.246	0.26	0.248	0.296	0.262
GGCCGC	0.853	0.867	0.854	0.892	0.799	0.807
CCTGAG	0.801	0.909	0.785	0.851	0.818	0.778
GGCAGT	0.524	0.518	0.48	0.539	0.523	0.575
GTCGGT	0.293	0.291	0.335	0.271	0.312	0.295
GTCGTC	0.65	0.773	0.75	0.749	0.723	0.693
CGGCGG	0.719	0.635	0.625	0.62	0.602	0.574
GGGTAG	0.647	0.657	0.593	0.706	0.657	0.735
AGGCAG	0.611	0.541	0.512	0.538	0.562	0.579
CCATCG	0.834	0.844	0.925	0.837	0.832	0.96
GAGGGA	0.516	0.483	0.484	0.479	0.511	0.516
CGCAGC	0.765	0.83	0.773	0.76	0.79	0.821
ATCGTA	0.892	0.862	0.835	0.858	0.934	0.893
GAGGGC	0.592	0.642	0.58	0.647	0.653	0.621
GGAGCC	0.354	0.328	0.34	0.328	0.313	0.333

Sequence	binding signal (ERG)	binding signal (ELF1)	binding signal (ELK4)	binding signal (ETV4)	binding signal (ETV1)	binding signal (ERF)
ACGCAA	0.901	0.94	0.964	0.904	0.99	0.942
CAGTTA	0.802	0.734	0.833	0.736	0.751	0.837
CAATCG	0.885	0.96	0.937	0.931	0.891	0.849
GTCTGT	0.904	0.842	0.997	0.873	1.01	0.876
GCGTAG	0.76	0.775	0.867	0.712	0.776	0.79
GTGAAG	0.537	0.549	0.526	0.556	0.597	0.589
GTAACG	0.916	0.945	1.03	0.958	0.904	0.911
CGCAGT	0.711	0.737	0.805	0.787	0.689	0.698
CTGGAG	0.657	0.684	0.609	0.641	0.686	0.707
GAGTGG	0.618	0.61	0.696	0.598	0.597	0.662
GGTCGA	0.78	0.703	0.761	0.829	0.768	0.778
CGTAGT	0.758	0.841	0.865	0.793	0.766	0.803
TGGAGA	0.366	0.433	0.393	0.381	0.409	0.46
ACGGGC	0.795	0.806	0.974	0.831	0.902	0.942
AGTTGA	0.783	0.785	0.861	0.805	0.76	0.85
GAAGGC	0.965	0.936	0.954	0.931	0.912	0.852
CGGCGA	0.732	0.744	0.702	0.731	0.753	0.724
TCGCCA	0.869	0.987	0.981	1.07	0.88	0.898
GAGCAT	0.764	0.751	0.75	0.813	0.719	0.675
GTGTGA	0.535	0.579	0.699	0.613	0.674	0.493
